Values from PubChem BioAssay AID1259331 (Drosophila RNAi Screening Center, 2017).
Test: 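Knock-downs that alter ATP level after a high zinc chloride dose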 (primary screen). System: Drosophila S2R+ cells. Reagents: long dsRNA against Drosophila genes. Time to read-out: 5 days (4 days knock-down, then 1 day zinc). Conditions: zinc chloride at 15 mM final level for 1 day. Read-out: 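Luminescent ATP assay standing in for viability; Z score is the mean over three replicate plates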. Scale: mean Z score: higher = more ATP than other wells, better survival under zinc; ATP luminescence: higher = more ATP, more viable cells. Call rule: 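Hit when the absolute Z score is greater than 1.5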. Meaning of the calls: active = hit, ATP up or down; inactive = not a hit.
The whole screen tested about 3,100 reagents; below is a part drawn at random. 126 of all reagents (4.1%) count as active. 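Calls are per reagent; zinc was so toxic that few knock-downs lowered ATP further, so most hits raise ATP.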 Raw values are not corrected between plates. Unmarked entries are inactive. The numbers tell different reagents against one gene apart. The record does not give: the amount of reagent.

SdhCL (Succinate dehydrogenase, subunit C-like) #1
- mean Z score: 0.346
- ATP luminescence, replicate 1: 34330
- ATP luminescence, replicate 2: 62604

SdhCL (Succinate dehydrogenase, subunit C-like) #2
- mean Z score: -0.137
- ATP luminescence, replicate 1: 53841
- ATP luminescence, replicate 2: 61539

fra (frazzled)
- mean Z score: 0.0771
- ATP luminescence, replicate 1: 60615
- ATP luminescence, replicate 2: 78828

Gr98b (Gustatory receptor 98b) #1
- mean Z score: 0.176
- ATP luminescence, replicate 1: 49229
- ATP luminescence, replicate 2: 50121

Gr98b (Gustatory receptor 98b) #2
- mean Z score: -0.157
- ATP luminescence, replicate 1: 57117
- ATP luminescence, replicate 2: 59403

Or22b (Odorant receptor 22b) #1
- mean Z score: -0.726
- ATP luminescence, replicate 1: 36113
- ATP luminescence, replicate 2: 37467

Or22b (Odorant receptor 22b) #2
- mean Z score: 0.14
- ATP luminescence, replicate 1: 63237
- ATP luminescence, replicate 2: 60735

kar (karmoisin) #1
- mean Z score: 0.686
- ATP luminescence, replicate 1: 51978
- ATP luminescence, replicate 2: 53121

kar (karmoisin) #2
- mean Z score: -0.818
- ATP luminescence, replicate 1: 39319
- ATP luminescence, replicate 2: 34227

fz (frizzled) #1
- mean Z score: 0.109
- ATP luminescence, replicate 1: 80128
- ATP luminescence, replicate 2: 64525

fz (frizzled) #2
- mean Z score: 0.00563
- ATP luminescence, replicate 1: 47240
- ATP luminescence, replicate 2: 47154

Targets above whose target name starts with S or s (2):
SdhCL (Succinate dehydrogenase, subunit C-like) #1
- mean Z score: 0.346
- ATP luminescence, replicate 1: 34330
- ATP luminescence, replicate 2: 62604

SdhCL (Succinate dehydrogenase, subunit C-like) #2
- mean Z score: -0.137
- ATP luminescence, replicate 1: 53841
- ATP luminescence, replicate 2: 61539

Next entries follow:
MFS12 (Major Facilitator Superfamily Transporter 12)
- mean Z score: 0.169
- ATP luminescence, replicate 1: 26539
- ATP luminescence, replicate 2: 34553

Ir48c (Ionotropic receptor 48c) #1
- mean Z score: -1.24
- ATP luminescence, replicate 1: 66480
- ATP luminescence, replicate 2: 50721

Ir48c (Ionotropic receptor 48c) #2
- mean Z score: -0.526
- ATP luminescence, replicate 1: 42937
- ATP luminescence, replicate 2: 44308

OtopLb (Otopetrin-like b) #1
- mean Z score: -0.0985
- ATP luminescence, replicate 1: 51372
- ATP luminescence, replicate 2: 58506

OtopLb (Otopetrin-like b) #2
- mean Z score: -0.135
- ATP luminescence, replicate 1: 57820
- ATP luminescence, replicate 2: 56031

PGRP-SD (Peptidoglycan recognition protein SD)
- mean Z score: -0.648
- ATP luminescence, replicate 1: 64919
- ATP luminescence, replicate 2: 47411

CG14232 #1
- mean Z score: 4.91 (active)
- ATP luminescence, replicate 1: 1.00e5
- ATP luminescence, replicate 2: 1.11e5

CG14232 #2
- mean Z score: 0.41
- ATP luminescence, replicate 1: 65125
- ATP luminescence, replicate 2: 60083

CG1161
- mean Z score: -0.304
- ATP luminescence, replicate 1: 51629
- ATP luminescence, replicate 2: 51938

Gr57a (Gustatory receptor 57a)
- mean Z score: 0.132
- ATP luminescence, replicate 1: 64422
- ATP luminescence, replicate 2: 72791

CG11147
- mean Z score: -0.136
- ATP luminescence, replicate 1: 50841
- ATP luminescence, replicate 2: 35787

slo (slowpoke)
- mean Z score: -0.187
- ATP luminescence, replicate 1: 41050
- ATP luminescence, replicate 2: 46314

CG1698 #1
- mean Z score: -0.212
- ATP luminescence, replicate 1: 27924
- ATP luminescence, replicate 2: 29856

CG1698 #2
- mean Z score: 0.607
- ATP luminescence, replicate 1: 69567
- ATP luminescence, replicate 2: 71968
